Measurements taken from the M2OR odorant receptor database.
This is a selection; strong and weak results do not stand in their true shares. The calls were merged from several studies; some rest on single wells. The list shows a part of the results.

Legend:
Settings in all cases: stereoisomer not certain
OR5M11 (Homo sapiens) = molecular target: T1, OR5M11 (Homo sapiens) (UniProt Q96RB7)
T1 sequence (whole entry): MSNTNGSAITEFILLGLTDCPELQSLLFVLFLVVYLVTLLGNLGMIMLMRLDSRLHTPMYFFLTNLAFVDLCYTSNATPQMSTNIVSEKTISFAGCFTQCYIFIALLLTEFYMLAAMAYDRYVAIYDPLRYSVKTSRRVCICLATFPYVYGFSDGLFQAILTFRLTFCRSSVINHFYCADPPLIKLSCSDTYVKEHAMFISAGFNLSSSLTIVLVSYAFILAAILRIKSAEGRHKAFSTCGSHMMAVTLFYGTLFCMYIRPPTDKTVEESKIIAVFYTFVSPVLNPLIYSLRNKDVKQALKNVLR
Outline: (§1)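 Values were gathered from published papers (main text and supplementary material), with extra details requested from the original authors when needed, and checked for typos and inconsistencies. Each receptor–molecule pair is called responsive (active) if the original authors judged the measured signal statistically different from baseline, and non-responsive (inactive) otherwise. Assay methods varied by source, often transient mammalian cell-line luciferase assays. Recorded details include cell line, G-protein, co-transfected protein and tags.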

OR5M1 = system: T2, OR5M1
T2 sequence (whole entry): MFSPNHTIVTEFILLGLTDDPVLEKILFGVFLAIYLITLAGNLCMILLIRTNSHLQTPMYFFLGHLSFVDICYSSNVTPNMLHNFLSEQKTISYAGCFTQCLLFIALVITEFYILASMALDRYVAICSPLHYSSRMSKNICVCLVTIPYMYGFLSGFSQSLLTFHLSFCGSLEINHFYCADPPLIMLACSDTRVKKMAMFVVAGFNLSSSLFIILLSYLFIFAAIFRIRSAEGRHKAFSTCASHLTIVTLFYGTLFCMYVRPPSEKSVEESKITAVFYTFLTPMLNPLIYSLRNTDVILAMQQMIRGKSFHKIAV
Outline: as §1

OR5M8 (Homo sapiens) = molecular target: T3, OR5M8 (Homo sapiens) (UniProt Q8NGP6)
T3 sequence (whole entry): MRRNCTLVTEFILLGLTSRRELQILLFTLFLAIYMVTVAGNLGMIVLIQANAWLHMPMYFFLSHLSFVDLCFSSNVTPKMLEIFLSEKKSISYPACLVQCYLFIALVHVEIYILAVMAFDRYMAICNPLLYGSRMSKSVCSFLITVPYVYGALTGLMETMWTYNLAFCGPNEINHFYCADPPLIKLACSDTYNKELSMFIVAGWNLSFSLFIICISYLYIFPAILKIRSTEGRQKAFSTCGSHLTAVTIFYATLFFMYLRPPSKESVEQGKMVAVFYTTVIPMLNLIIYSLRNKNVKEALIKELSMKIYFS
Outline: as §1

OR5M9 (Homo sapiens) = molecular target: T4, OR5M9 (Homo sapiens) (UniProt Q8NGP3)
T4 sequence (whole entry): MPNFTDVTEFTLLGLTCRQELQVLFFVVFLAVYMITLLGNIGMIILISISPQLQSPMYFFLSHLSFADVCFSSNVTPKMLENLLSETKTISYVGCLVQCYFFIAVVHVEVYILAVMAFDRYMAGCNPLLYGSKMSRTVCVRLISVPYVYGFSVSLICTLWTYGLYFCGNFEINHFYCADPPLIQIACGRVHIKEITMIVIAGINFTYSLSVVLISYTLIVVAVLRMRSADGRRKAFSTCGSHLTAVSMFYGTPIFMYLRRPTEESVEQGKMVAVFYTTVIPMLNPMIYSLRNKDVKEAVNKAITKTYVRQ
Outline: as §1

OR5MA = system: T5, OR5MA
T5 sequence (whole entry): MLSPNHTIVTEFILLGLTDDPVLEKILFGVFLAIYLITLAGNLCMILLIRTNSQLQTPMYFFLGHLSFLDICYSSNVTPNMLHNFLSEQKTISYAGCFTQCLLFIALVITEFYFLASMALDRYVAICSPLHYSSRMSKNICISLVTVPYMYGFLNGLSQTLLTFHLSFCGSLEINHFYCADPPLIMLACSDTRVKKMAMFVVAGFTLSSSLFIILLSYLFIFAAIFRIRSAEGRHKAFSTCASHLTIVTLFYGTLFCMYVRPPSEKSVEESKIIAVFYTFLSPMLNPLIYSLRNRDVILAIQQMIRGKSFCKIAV
Outline: as §1

OR5P2 (Homo sapiens) = molecular target: T6, OR5P2 (Homo sapiens) (UniProt Q8WZ92)
T6 sequence (whole entry): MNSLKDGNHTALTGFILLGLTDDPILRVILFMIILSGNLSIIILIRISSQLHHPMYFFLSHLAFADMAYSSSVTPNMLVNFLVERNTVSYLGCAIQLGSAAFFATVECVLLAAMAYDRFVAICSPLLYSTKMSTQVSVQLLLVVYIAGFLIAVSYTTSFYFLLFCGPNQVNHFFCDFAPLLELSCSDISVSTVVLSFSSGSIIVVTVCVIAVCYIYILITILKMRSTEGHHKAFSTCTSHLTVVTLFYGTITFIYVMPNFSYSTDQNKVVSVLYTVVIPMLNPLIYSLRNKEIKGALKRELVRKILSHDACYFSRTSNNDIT
Outline: as §1

OR5P3 (Homo sapiens) = molecular target: T7, OR5P3 (Homo sapiens) (UniProt Q8WZ94)
T7 sequence (whole entry): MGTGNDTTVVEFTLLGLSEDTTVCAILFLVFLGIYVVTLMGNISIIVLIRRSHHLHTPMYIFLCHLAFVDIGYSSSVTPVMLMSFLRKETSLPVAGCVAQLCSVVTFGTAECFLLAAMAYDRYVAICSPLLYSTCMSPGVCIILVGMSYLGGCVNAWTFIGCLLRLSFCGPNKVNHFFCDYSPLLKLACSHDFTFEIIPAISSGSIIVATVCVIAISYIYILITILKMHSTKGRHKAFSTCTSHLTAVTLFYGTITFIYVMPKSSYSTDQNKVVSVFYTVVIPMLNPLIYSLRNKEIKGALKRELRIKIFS
Outline: as §1

OR5R1 = system: T8, OR5R1
T8 sequence (whole entry): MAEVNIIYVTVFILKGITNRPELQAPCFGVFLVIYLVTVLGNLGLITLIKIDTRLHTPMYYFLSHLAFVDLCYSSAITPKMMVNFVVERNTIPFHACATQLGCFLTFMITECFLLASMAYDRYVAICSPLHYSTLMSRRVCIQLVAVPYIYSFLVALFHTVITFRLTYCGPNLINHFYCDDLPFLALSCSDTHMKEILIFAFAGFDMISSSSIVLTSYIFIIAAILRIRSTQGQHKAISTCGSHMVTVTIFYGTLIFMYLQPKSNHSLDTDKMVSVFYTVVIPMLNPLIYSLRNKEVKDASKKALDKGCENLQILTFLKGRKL
Outline: as §1

OR5T1 (Homo sapiens) = molecular target: T9, OR5T1 (Homo sapiens) (UniProt Q8NG75)
T9 sequence (whole entry): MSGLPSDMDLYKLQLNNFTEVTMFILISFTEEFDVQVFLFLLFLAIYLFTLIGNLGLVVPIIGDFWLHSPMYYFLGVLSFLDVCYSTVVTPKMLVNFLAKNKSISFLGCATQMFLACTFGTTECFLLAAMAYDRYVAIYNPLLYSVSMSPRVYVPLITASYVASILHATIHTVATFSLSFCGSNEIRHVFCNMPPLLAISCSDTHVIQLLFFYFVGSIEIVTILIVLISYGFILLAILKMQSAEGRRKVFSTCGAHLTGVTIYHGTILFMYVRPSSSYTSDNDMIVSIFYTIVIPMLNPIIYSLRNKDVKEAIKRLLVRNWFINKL
Outline: as §1

OR5T1 = system: T10, OR5T1
T10 sequence (whole entry): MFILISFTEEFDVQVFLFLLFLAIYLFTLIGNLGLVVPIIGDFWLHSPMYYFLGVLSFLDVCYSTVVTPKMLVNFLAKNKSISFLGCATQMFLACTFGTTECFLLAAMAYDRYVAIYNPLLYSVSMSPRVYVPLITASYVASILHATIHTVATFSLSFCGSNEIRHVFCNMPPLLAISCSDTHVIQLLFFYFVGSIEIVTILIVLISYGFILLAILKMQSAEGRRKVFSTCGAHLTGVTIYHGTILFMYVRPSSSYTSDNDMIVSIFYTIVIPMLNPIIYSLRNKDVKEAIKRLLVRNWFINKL
Outline: as §1

OR5T2 [1] = system: T11, OR5T2
T11 sequence (whole entry): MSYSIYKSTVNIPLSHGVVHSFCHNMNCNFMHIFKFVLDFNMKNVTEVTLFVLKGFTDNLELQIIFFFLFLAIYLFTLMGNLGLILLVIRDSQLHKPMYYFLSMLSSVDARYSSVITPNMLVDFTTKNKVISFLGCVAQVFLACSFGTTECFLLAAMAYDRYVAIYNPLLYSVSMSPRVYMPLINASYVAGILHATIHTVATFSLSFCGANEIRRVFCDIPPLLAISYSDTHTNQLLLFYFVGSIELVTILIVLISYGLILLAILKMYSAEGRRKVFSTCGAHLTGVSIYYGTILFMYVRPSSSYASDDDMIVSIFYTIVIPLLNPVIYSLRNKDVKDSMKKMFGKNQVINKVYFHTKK
Outline: as §1

OR5T2 [2] = system: T12, OR5T2; remark: listed apart in the source
T12 sequence (whole entry): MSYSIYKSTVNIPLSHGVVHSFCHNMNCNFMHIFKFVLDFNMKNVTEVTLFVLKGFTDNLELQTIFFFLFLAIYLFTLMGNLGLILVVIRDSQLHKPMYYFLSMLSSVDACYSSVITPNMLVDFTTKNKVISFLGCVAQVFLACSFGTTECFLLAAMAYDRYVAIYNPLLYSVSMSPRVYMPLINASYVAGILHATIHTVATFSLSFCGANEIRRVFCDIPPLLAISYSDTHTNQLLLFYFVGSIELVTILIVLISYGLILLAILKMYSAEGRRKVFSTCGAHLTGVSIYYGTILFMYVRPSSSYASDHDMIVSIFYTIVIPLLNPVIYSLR
Outline: as §1

OR5T3 = system: T13, OR5T3
T13 sequence (whole entry): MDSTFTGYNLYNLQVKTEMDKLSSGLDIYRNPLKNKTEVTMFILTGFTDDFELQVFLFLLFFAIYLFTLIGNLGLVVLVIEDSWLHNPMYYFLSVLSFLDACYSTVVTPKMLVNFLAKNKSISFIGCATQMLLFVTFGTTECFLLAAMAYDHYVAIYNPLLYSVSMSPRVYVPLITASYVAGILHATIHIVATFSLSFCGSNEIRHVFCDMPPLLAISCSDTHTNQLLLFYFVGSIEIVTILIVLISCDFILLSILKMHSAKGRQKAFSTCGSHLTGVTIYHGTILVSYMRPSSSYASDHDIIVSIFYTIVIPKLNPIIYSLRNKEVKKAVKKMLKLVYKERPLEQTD
Outline: as §1

OR5V1 (Homo sapiens) = molecular target: T14, OR5V1 (Homo sapiens) (UniProt Q9UGF6)
T14 sequence (whole entry): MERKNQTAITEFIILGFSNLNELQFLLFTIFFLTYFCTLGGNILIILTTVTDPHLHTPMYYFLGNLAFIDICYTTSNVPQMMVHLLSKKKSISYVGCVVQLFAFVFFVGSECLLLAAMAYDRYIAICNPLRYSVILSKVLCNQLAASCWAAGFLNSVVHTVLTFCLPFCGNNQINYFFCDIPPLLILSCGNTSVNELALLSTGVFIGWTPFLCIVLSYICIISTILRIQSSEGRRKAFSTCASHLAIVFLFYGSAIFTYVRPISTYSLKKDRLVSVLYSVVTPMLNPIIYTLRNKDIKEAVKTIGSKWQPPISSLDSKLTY
Outline: as §1

OR5W2 = system: T15, OR5W2
T15 sequence (whole entry): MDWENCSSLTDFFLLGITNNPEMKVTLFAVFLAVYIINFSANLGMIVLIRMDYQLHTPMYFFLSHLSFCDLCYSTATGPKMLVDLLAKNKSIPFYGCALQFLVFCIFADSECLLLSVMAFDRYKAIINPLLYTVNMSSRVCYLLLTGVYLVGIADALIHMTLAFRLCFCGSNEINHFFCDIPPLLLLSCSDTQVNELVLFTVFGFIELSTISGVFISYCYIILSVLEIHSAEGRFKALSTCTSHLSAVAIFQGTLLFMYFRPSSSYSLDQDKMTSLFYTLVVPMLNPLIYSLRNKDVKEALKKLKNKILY
Outline: as §1

OR6A2 (Homo sapiens) = molecular target: T16, OR6A2 (Homo sapiens) (UniProt O95222)
T16 sequence (whole entry): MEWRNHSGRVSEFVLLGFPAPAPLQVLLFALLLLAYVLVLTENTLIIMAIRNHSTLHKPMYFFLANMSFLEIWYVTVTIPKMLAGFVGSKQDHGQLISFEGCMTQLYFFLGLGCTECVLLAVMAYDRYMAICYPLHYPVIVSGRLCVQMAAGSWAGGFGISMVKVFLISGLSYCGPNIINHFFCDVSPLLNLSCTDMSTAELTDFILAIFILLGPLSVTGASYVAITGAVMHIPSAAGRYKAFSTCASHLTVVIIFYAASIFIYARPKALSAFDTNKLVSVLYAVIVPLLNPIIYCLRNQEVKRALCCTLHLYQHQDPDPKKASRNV
Outline: as §1

OR5M3 (Homo sapiens) = molecular target: T17, OR5M3 (Homo sapiens) (UniProt Q8NGP4)
T17 sequence (whole entry): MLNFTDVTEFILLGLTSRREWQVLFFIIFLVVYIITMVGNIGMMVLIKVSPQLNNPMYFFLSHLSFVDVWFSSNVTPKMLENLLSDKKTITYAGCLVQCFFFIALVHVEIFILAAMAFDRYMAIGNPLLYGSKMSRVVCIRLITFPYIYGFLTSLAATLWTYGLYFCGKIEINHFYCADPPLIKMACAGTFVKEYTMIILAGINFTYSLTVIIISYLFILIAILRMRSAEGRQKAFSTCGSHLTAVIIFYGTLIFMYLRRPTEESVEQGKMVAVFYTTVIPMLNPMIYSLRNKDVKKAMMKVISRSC
Outline: as §1

Measured: odorant receptor agonist call

C=CCSCC=C
not listed: OR5M3 (Homo sapiens)
inactive: all other assays above

CC(C)CC(=O)O
inactive: all assays above
